# The list shows a part of the results.
# Legend:
# Test in all cases: glycan array binding signal (z-score within array); higher = stronger binding
# Settings in all cases: glycan notation: IUPAC condensed, linker removed
# [1] = biological target: Neu5Ac(a2-3)Gal(b1-4)[Fuc(a1-3)]GlcNAc(b1-3)Gal(b1-4)GlcNAc
# Outline: (§1)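 Arrays were curated from the Consortium for Functional Glycomics database, 3228 in total, and kept only where the protein sequence was available. Binding is expressed as a within-array Z-score. This score was averaged across arrays of the same protein sequence at different concentrations or buffers and across linkers, and negative values can be read as non-binding.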
# [2] = biological target: Neu5Ac(a2-3)Gal(b1-4)[Fuc(a1-3)]GlcNAc(b1-3)Gal(b1-4)[Fuc(a1-3)]GlcNAc(b1-3)Gal(b1-4)[Fuc(a1-3)]GlcNAc
# Outline: as §1
# [3] = biological target: Neu5Ac(a2-3)Gal(b1-4)[Fuc(a1-3)]GlcNAc(b1-3)GalNAc
# Outline: as §1
# [4] = biological target: Neu5Ac(a2-3)Gal(b1-4)[Fuc(a1-3)]GlcNAc(b1-6)[Gal(b1-3)]GalNAc
# Outline: as §1
# [5] = biological target: Neu5Ac(a2-3)Gal(b1-4)[Fuc(a1-3)]GlcNAc(b1-6)[Neu5Ac(a2-3)Gal(b1-3)]GalNAc
# Outline: as §1
# [6] = biological target: Neu5Ac(a2-3)Gal(b1-4)[Fuc(a1-3)]GlcNAc6S
# Outline: as §1
# [7] = biological target: Neu5Ac(a2-3)Gal6S(b1-4)GlcNAc
# Outline: as §1
# [8] = biological target: Neu5Ac(a2-3)Gal6S(b1-4)[Fuc(a1-3)]GlcNAc
# Outline: as §1
# Neu5Ac(a2-3)GalNAc = biological target: Neu5Ac(a2-3)GalNAc
# Outline: as §1
# [9] = biological target: Neu5Ac(a2-3)GalNAc(b1-4)GlcNAc
# Outline: as §1
# [10] = biological target: Neu5Ac(a2-3)[GalNAc(b1-4)]Gal(b1-4)Glc
# Outline: as §1
# [11] = biological target: Neu5Ac(a2-3)[GalNAc(b1-4)]Gal(b1-4)GlcNAc
# Outline: as §1
# [12] = biological target: Neu5Ac(a2-3)[GalNAc(b1-4)]Gal(b1-4)GlcNAc(b1-3)GalNAc
# Outline: as §1
# [13] = biological target: Neu5Ac(a2-3)[Neu5Ac(a2-6)]GalNAc
# Outline: as §1
# Neu5Ac(a2-6)Gal = biological target: Neu5Ac(a2-6)Gal
# Outline: as §1
# [14] = biological target: Neu5Ac(a2-6)Gal(b1-3)GlcNAc(b1-3)[Gal(b1-4)GlcNAc(b1-6)]Gal(b1-4)Glc
# Outline: as §1
# Neu5Ac(a2-6)Gal(b1-4)Glc = biological target: Neu5Ac(a2-6)Gal(b1-4)Glc
# Outline: as §1
# [15] = biological target: Neu5Ac(a2-6)Gal(b1-4)GlcNAc
# Outline: as §1
# [16] = biological target: Neu5Ac(a2-6)Gal(b1-4)GlcNAc(b1-2)Man(a1-3)Man(b1-4)GlcNAc(b1-4)GlcNAc
# Outline: as §1
# [17] = biological target: Neu5Ac(a2-6)Gal(b1-4)GlcNAc(b1-2)Man(a1-3)[Gal(b1-4)GlcNAc(b1-2)Man(a1-6)]Man(b1-4)GlcNAc(b1-4)GlcNAc
# Outline: as §1
# [18] = biological target: Neu5Ac(a2-6)Gal(b1-4)GlcNAc(b1-2)Man(a1-3)[GlcNAc(b1-2)Man(a1-6)]Man(b1-4)GlcNAc(b1-4)GlcNAc
# Outline: as §1
# [19] = biological target: Neu5Ac(a2-6)Gal(b1-4)GlcNAc(b1-2)Man(a1-3)[GlcNAc(b1-2)Man(b1-4)GlcNAc(b1-2)Man(a1-6)]Man(b1-4)GlcNAc(b1-4)GlcNAc
# Outline: as §1
# [20] = biological target: Neu5Ac(a2-6)Gal(b1-4)GlcNAc(b1-2)Man(a1-3)[Man(a1-6)]Man(b1-4)GlcNAc(b1-4)GlcNAc
# Outline: as §1
# [21] = biological target: Neu5Ac(a2-6)Gal(b1-4)GlcNAc(b1-2)Man(a1-3)[Neu5Ac(a2-6)Gal(b1-4)GlcNAc(b1-2)Man(a1-6)]Man(b1-4)GlcNAc(b1-4)GlcNAc
# Outline: as §1
# [22] = biological target: Neu5Ac(a2-6)Gal(b1-4)GlcNAc(b1-2)Man(a1-6)Man(b1-4)GlcNAc(b1-4)GlcNAc
# Outline: as §1
# [23] = biological target: Neu5Ac(a2-6)Gal(b1-4)GlcNAc(b1-2)Man(a1-6)[Gal(b1-4)GlcNAc(b1-2)Man(a1-3)]Man(b1-4)GlcNAc(b1-4)GlcNAc
# Outline: as §1
# [24] = biological target: Neu5Ac(a2-6)Gal(b1-4)GlcNAc(b1-2)Man(a1-6)[GlcNAc(b1-2)Man(a1-3)]Man(b1-4)GlcNAc(b1-4)GlcNAc
# Outline: as §1
# [25] = biological target: Neu5Ac(a2-6)Gal(b1-4)GlcNAc(b1-2)Man(a1-6)[Man(a1-3)]Man(b1-4)GlcNAc(b1-4)GlcNAc
# Outline: as §1
# [26] = biological target: Neu5Ac(a2-6)Gal(b1-4)GlcNAc(b1-3)Gal(b1-3)GlcNAc
# Outline: as §1
# [27] = biological target: Neu5Ac(a2-6)Gal(b1-4)GlcNAc(b1-3)Gal(b1-4)GlcNAc
# Outline: as §1
# [28] = biological target: Neu5Ac(a2-6)Gal(b1-4)GlcNAc(b1-3)Gal(b1-4)GlcNAc(b1-3)Gal(b1-4)GlcNAc
# Outline: as §1
# [29] = biological target: Neu5Ac(a2-6)Gal(b1-4)GlcNAc(b1-3)Gal(b1-4)[Fuc(a1-3)]GlcNAc(b1-3)Gal(b1-4)[Fuc(a1-3)]GlcNAc
# Outline: as §1
# [30] = biological target: Neu5Ac(a2-6)Gal(b1-4)GlcNAc(b1-3)GalNAc
# Outline: as §1
# [31] = biological target: Neu5Ac(a2-6)Gal(b1-4)GlcNAc6S
# Outline: as §1
# Neu5Ac(a2-6)GalNAc = biological target: Neu5Ac(a2-6)GalNAc
# Outline: as §1
# [32] = biological target: Neu5Ac(a2-6)GalNAc(b1-4)GlcNAc
# Outline: as §1
# [33] = biological target: Neu5Ac(a2-6)GlcNAc(b1-4)GlcNAc
# Outline: as §1
# [34] = biological target: Neu5Ac(a2-6)GlcNAc(b1-4)GlcNAc(b1-4)GlcNAc
# Outline: as §1
# Neu5Ac(a2-8)Neu5Ac = biological target: Neu5Ac(a2-8)Neu5Ac
# Outline: as §1
# [35] = biological target: Neu5Ac(a2-8)Neu5Ac(a2-3)Gal(b1-4)Glc
# Outline: as §1
# [36] = biological target: Neu5Ac(a2-8)Neu5Ac(a2-3)[Gal(b1-3)GalNAc(b1-4)]Gal(b1-4)Glc
# Outline: as §1
# [37] = biological target: Neu5Ac(a2-8)Neu5Ac(a2-3)[GalNAc(b1-4)]Gal(b1-4)Glc
# Outline: as §1
# [38] = biological target: Neu5Ac(a2-8)Neu5Ac(a2-8)Neu5Ac
# Outline: as §1
# [39] = biological target: Neu5Ac(a2-8)Neu5Ac(a2-8)Neu5Ac(a2-3)Gal(b1-4)Glc
# Outline: as §1
# [40] = biological target: Neu5Ac(a2-8)Neu5Ac(a2-8)Neu5Ac(a2-3)[GalNAc(b1-4)]Gal(b1-4)Glc
# Outline: as §1
# [41] = biological target: Neu5Ac(a2-8)Neu5Ac(a2-8)Neu5Ac(a2-8)Neu5Ac(a2-3)[GalNAc(b1-4)]Gal(b1-4)Glc
# Outline: as §1
# [42] = biological target: Neu5Ac(b2-6)Gal(b1-4)GlcNAc
# Outline: as §1
# Neu5Ac(b2-6)GalNAc = biological target: Neu5Ac(b2-6)GalNAc
# Outline: as §1
# [43] = biological target: Neu5Ac9Ac(a2-3)Gal(b1-3)GlcNAc
# Outline: as §1
# [44] = biological target: Neu5Ac9Ac(a2-3)Gal(b1-4)GlcNAc
# Outline: as §1
# [45] = biological target: Neu5Ac9Ac(a2-6)Gal(b1-4)GlcNAc
# Outline: as §1
# [46] = biological target: Neu5Gc(a2-3)Gal(b1-3)GlcNAc
# Outline: as §1
# [47] = biological target: Neu5Gc(a2-3)Gal(b1-3)[Fuc(a1-4)]GlcNAc
# Outline: as §1
# Neu5Gc(a2-3)Gal(b1-4)Glc = biological target: Neu5Gc(a2-3)Gal(b1-4)Glc
# Outline: as §1
# [48] = biological target: Neu5Gc(a2-3)Gal(b1-4)GlcNAc
# Outline: as §1
# [49] = biological target: Neu5Gc(a2-3)Gal(b1-4)[Fuc(a1-3)]GlcNAc
# Outline: as §1
# [50] = biological target: Neu5Gc(a2-6)Gal(b1-4)GlcNAc
# Outline: as §1
# Neu5Gc(a2-6)GalNAc = biological target: Neu5Gc(a2-6)GalNAc
# Outline: as §1
# [51] = biological target: Neu5Gc(b2-6)Gal(b1-4)GlcNAc
# Outline: as §1
binder,measurement,setting,value
"rPitB (Streptococcus pneumoniae), A0A0I7U739 (protein) MSEIEIINAKKIYHDVPVIENLNITIPKGSLFTLLGASGCGKTTLLRMIAGFNSIKDGEFYFDDTKINNMEPSKRNIGLVFQNYAIFPHLTVRDNVAFGLMQKKVPKEELIQQTNKYLELMQIAQYAD",glycan array binding signal (z-score),[1],1.07
same,glycan array binding signal (z-score),[2],0.046
same,glycan array binding signal (z-score),[3],4.13
same,glycan array binding signal (z-score),[4],2.86
same,glycan array binding signal (z-score),[5],-0.266
same,glycan array binding signal (z-score),[6],-0.021
same,glycan array binding signal (z-score),[7],-0.599
same,glycan array binding signal (z-score),[8],-0.213
same,glycan array binding signal (z-score),Neu5Ac(a2-3)GalNAc,0.235
same,glycan array binding signal (z-score),[9],-0.428
same,glycan array binding signal (z-score),[10],0.073
same,glycan array binding signal (z-score),[11],-0.299
same,glycan array binding signal (z-score),[12],-0.463
same,glycan array binding signal (z-score),[13],-0.61
same,glycan array binding signal (z-score),Neu5Ac(a2-6)Gal,-0.654
same,glycan array binding signal (z-score),[14],-0.035
same,glycan array binding signal (z-score),Neu5Ac(a2-6)Gal(b1-4)Glc,-0.185
same,glycan array binding signal (z-score),[15],-0.5
same,glycan array binding signal (z-score),[16],-0.178
same,glycan array binding signal (z-score),[17],0.459
same,glycan array binding signal (z-score),[18],0.334
same,glycan array binding signal (z-score),[19],-0.255
same,glycan array binding signal (z-score),[20],0.505
same,glycan array binding signal (z-score),[21],-0.032
same,glycan array binding signal (z-score),[22],0.334
same,glycan array binding signal (z-score),[23],0.367
same,glycan array binding signal (z-score),[24],0.118
same,glycan array binding signal (z-score),[25],-0.154
same,glycan array binding signal (z-score),[26],0.35
same,glycan array binding signal (z-score),[27],0.046
same,glycan array binding signal (z-score),[28],0.323
same,glycan array binding signal (z-score),[29],0.032
same,glycan array binding signal (z-score),[30],-0.841
same,glycan array binding signal (z-score),[31],0.47
same,glycan array binding signal (z-score),Neu5Ac(a2-6)GalNAc,-0.725
same,glycan array binding signal (z-score),[32],-0.87
same,glycan array binding signal (z-score),[33],0.144
same,glycan array binding signal (z-score),[34],0.495
same,glycan array binding signal (z-score),Neu5Ac(a2-8)Neu5Ac,-0.145
same,glycan array binding signal (z-score),[35],-0.248
same,glycan array binding signal (z-score),[36],-0.053
same,glycan array binding signal (z-score),[37],-0.462
same,glycan array binding signal (z-score),[38],-0.484
same,glycan array binding signal (z-score),[39],0.611
same,glycan array binding signal (z-score),[40],-0.201
same,glycan array binding signal (z-score),[41],-0.44
same,glycan array binding signal (z-score),[42],0.31
same,glycan array binding signal (z-score),Neu5Ac(b2-6)GalNAc,-0.028
same,glycan array binding signal (z-score),[43],0.367
same,glycan array binding signal (z-score),[44],-0.889
same,glycan array binding signal (z-score),[45],-0.315
same,glycan array binding signal (z-score),[46],-0.303
same,glycan array binding signal (z-score),[47],0.021
same,glycan array binding signal (z-score),Neu5Gc(a2-3)Gal(b1-4)Glc,-0.415
same,glycan array binding signal (z-score),[48],0.172
same,glycan array binding signal (z-score),[49],-0.415
same,glycan array binding signal (z-score),[50],-0.644
same,glycan array binding signal (z-score),Neu5Gc(a2-6)GalNAc,-0.249
same,glycan array binding signal (z-score),[51],-0.518

# Reprinted at random: two records from the list.
binder,measurement,setting,value
"rPitB (Streptococcus pneumoniae), A0A0I7U739 (protein) MSEIEIINAKKIYHDVPVIENLNITIPKGSLFTLLGASGCGKTTLLRMIAGFNSIKDGEFYFDDTKINNMEPSKRNIGLVFQNYAIFPHLTVRDNVAFGLMQKKVPKEELIQQTNKYLELMQIAQYAD",glycan array binding signal (z-score),[22],0.334
same,glycan array binding signal (z-score),[17],0.459

# Reference: the supplement of paper PMC8728848
